Results deposited as PubChem BioAssay AID602203 (INSERM, 2012).
In all, the deposit lists 999 reagents; shown is a part drawn at random. 85 of them (8.5%) were called active. 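Unclear how single-siRNA scores of -1, 0 or +1 give the printed -4 to 4 range; calls lie near -3 or 3 and beyond.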 Not given: the amount of reagent, the time to read-out, the dose of the treatment.

Test: 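Follow-up of knock-downs that sensitize or protect A549 cells against cisplatin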 (follow-up of hits)
Cell system: human A549 lung cancer cells
Reagents: siRNA pair against human genes
Conditions: cisplatin at a dose killing half of control-siRNA cells, given 48 h after transfection
Measured: 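Cisplatin at a dose killing 50% of control cells, 48 h post-transfection; each siRNA +1 protective, -1 sensitizing, 0 if toxic (LDH) or antiproliferative (WST-1); per-gene sum and mean death change versus control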
Scale: summed siRNA score for cisplatin death: higher = more siRNAs reduced cisplatin-induced cell death; change in cisplatin death versus control: higher = fewer cells died than in control
Hit rule: In these data the active calls have summed siRNA score for cisplatin death at about -3 or lower, or at about 3 or higher

Target gene	summed siRNA score for cisplatin death	change in cisplatin death versus control (percentage points)	call
ALG6	0		inactive
OR4K13	1		inactive
DHDDS	0		inactive
VPS45	0		inactive
B4GALNT1	1		inactive
TP53TG3	1		inactive
DSCR9	0		inactive
PNLIPRP1	-1		inactive
VRK2	-1		inactive
AR	-2		inactive
CREM	-1		inactive
CDC42BPA	0		inactive
STAMBPL1	-1		inactive
CHD2	0		inactive
CRHR1	-2		inactive
SLC2A5	-2		inactive
ACTE1P	1		inactive
CBR4	2		inactive
CRY1	-1		inactive
STK33	1		inactive
RRAGB	0		inactive
EMP1	1		inactive
LSR	0		inactive
TLN2	0		inactive
HNRNPH1	1		inactive
FRMD6-AS1	1		inactive
GPR52	-1		inactive
LOC133790	0		inactive
RRAD	-3	-11	active
SLC4A9	1		inactive
FBXO42	3	13.5	active
IGFBP1	-1		inactive
RFPL2	1		inactive
KIF1C	-1		inactive
FOXF2	-1		inactive
ALPK3	0		inactive
LOC151320	-1		inactive
SLC37A4	-2		inactive
PIGR	-1		inactive
SPI1	-1		inactive
VN1R10P	0		inactive
FLJ38508	1		inactive
LOC440301	0		inactive
DNM1P28	1		inactive
SECISBP2L	-1		inactive
OSTN	-2		inactive
LOC440035	1		inactive
CNN1	1		inactive
RPA3	0		inactive
RAMP1	0		inactive
LOC440943	0		inactive
RIPK4	0		inactive
SERPINF1	1		inactive
USP51	-1		inactive
LOC388406	1		inactive
ITIH6	0		inactive
CYC1	-1		inactive
FBXO8	2		inactive
CD38	-1		inactive
RPGRIP1	-1		inactive
LOC389264	1		inactive
HYI	-2		inactive
TUBB3	-1		inactive
LOC402382	1		inactive
LOC390564	1		inactive
ATPSCKMT	0		inactive
PLEKHF1	-1		inactive
SERPINA10	-1		inactive
ZRANB3	1		inactive
ASTL	3	8.64	active
SLC27A6	2		inactive
OR2A25	2		inactive
LOC442180	1		inactive
CUL1	-2		inactive
LOC139516	0		inactive
BTN2A3P	-1		inactive
MZT2B	-2		inactive
LOC440960	0		inactive
PON2	-1		inactive
AGO3	0		inactive
SEC31B	2		inactive
FAM89B	-2		inactive
LOC442022	1		inactive
KIAA0753	1		inactive
CUL3	-2		inactive
TTLL4	-1		inactive
LOC389786	1		inactive
NPEPPS	-1		inactive
MMP14	0		inactive
PF4	1		inactive
EPHB4	-2		inactive
IL10RA	-1		inactive
LOC285588	1		inactive
CD151	-3	-9.12	active
NCOA7	0		inactive
CATSPERD	0		inactive
LOC442115	2		inactive
NCOA2	-1		inactive
ARSG	-1		inactive
KHSRP	-3	-10.2	active
TBPL1	1		inactive
HAS3	0		inactive
LOC441781	-1		inactive
LOC441992	-1		inactive
OR52E5	2		inactive
LOC202546	0		inactive
RCVRN	-2		inactive
GRB7	-2		inactive
LOC440477	1		inactive
MPP3	-2		inactive
STK39	2		inactive
OXT	1		inactive
UBE2C	-1		inactive
LOC344328	1		inactive
PAGE2	0		inactive
TGFBR2	0		inactive
NUDT9	-2		inactive
PCDHA1	-1		inactive
LOC441721	2		inactive
HMCN1	0		inactive
AREG	0		inactive
OR1S1	0		inactive
ZRANB1	1		inactive
LINC00898	0		inactive
GTF3C1	1		inactive
STT3B	1		inactive
LOC441802	1		inactive
UBAC1	-1		inactive
PSMA8	0		inactive
PYGO1	0		inactive
PSG7	2		inactive
CCR7	-1		inactive
GUCY2D	-1		inactive
LOC388122	-1		inactive
SULF1	-2		inactive
ASRGL1	-2		inactive
